# Tested on: primary NK cells
# Test: Confocal imaging of primary NK cells exposed to PIKfyve inhibitors (LAMP-1 / granzyme B staining)
# Format: cell-based, human
# Settings: 1 μM overnight, LAMP-1 staining, FIG. 10
# Protocol: Sorted NK cells were prepared for confocal microscopy using fixation/permeabilization (BD Bioscience Cytofix/Cytoperm) prior to intracellular staining with mouse anti-human granzyme B-A647 (GB11), rabbit anti-human pericentrin (Ab4448) followed by Donkey anti-Rabbit IgG Alexa555 and donkey anti-mouse-A568. After staining, the fixed cells were adhered to glass cover slips using Cell Tak (Corning) and mounted using Pro-long Gold Antifade with DAPI. The cells were examined with a Zeiss LSM 710 confocal microscope (Carl Zeiss Microlmaging GmbH) equipped with an Ar-Laser Multiline (458/488/514 nm), a DPSS-561 10 (561 nm), a Laser diode 405-30 CW (405 nm), and a HeNe-laser (633 nm). The objective used was a Zeiss plan-Apochromat 63×NA/1.4 oil DICII. Image processing and analysis were performed with basic software ZEN 2011 (Carl Zeiss Microlmaging GmbH) and Imaris 7.7.2 (Bitplane AG). Confocal z-stacks were deconvolved using Huygens Essential 14.06 (Scientific Volume Imaging b.v.), and visualized with Imaris.
# For the PIKfyve inhibition experiments, fresh NK cells were left either untreated or cultured in RPMI/10% FCS, supplemented with 1 μM Vacuolin-1, YM201636 or Apilimod at 37° C. in 5% CO2 overnight. Cells were surface-stained with anti-human HLA-ABC antibody (W6/32, BioLegend) prior to settlement on CelITak-coated slides for 20 minutes, followed by fixation with 4% paraformaldehyde. […]
smiles,measurement,value
Nc1ccc(C(=O)Nc2cccc(-c3nc(N4CCOCC4)c4oc5ncccc5c4n3)c2)cn1 [YM201636],secretory lysosome size,increase in secretory lysosome size

# Source: US20190225941A1, “MODULATION OF FUNCTION OF IMMUNE EFFECTOR CELLS” (OSLO UNIVERSITETSSYKEHUS HF, priority 2016, published 2019)
